# Measured values reported in patent US9956262B2, “Use of a bacterium isolated from the genus Pseudoalteromonas, cyclolipopeptides and uses thereof” (priority 2013, dated 2018).
# At least one compound was matched to its structure with a doubt left.
# System: strain hCg-6
# Experiment: Antibiotic sensitivity of the strain hCg-6
# Type: cell-based, Pseudoalteromonas hCg-6
smiles,measurement,value
CN(C)[C@@H]1C(O)=C(C(N)=O)C(=O)[C@@]2(O)C(O)=C3C(=O)c4c(O)cccc4[C@@](C)(O)[C@H]3C[C@@H]12 [tetracycline],resistance/sensitivity of the strain hCg-6,sensitive
